The list shows only some results of the screen, not a fair sample: it gathers tests that were run many times, whatever their T/C, doses with no T/C, and many T/C values between a quarter and a half above the control. Other doses and runs of a compound stand elsewhere. T/C: endpoint of the treated group in % of that of the vehicle group. Some entries give survivors of the animals treated and no T/C: the source files T/C as zero there, which appears to mark a toxic dose or a test without result, not a measured value. Some survivor counts are full or nearly so, which does not show that the dose was tolerated: survival well below the control is almost never listed, so the zero probably covers shortened survival too. Counts of survivors are from the toxicity check (mostly the fifth day) where no day follows; animals may have died later. Schedules are NCI's codes, read here as Q, the interval in days (D) or hours (H), X, the number of doses. Some entries were tested several times; the values are given in rising order. Where survival is the endpoint, the PubChem record calls one and a half times the control and up active, and a quarter to a half above the control has no call in these data; cut-offs in other NCI protocols can differ. Some T/C values carry the count of animals alive at the toxicity check (mostly the fifth day); where none is given, no animal had died by that day.
Tested on: B6C3F1 mice, Lewis lung carcinoma iv, survival T/C
Test: NCI In Vivo Anticancer Drug Screen. Data for tumor model Lewis Lung Carcinoma (intravenous) in B6C3F1 mice
Conditions: T/C endpoint: median survival time, schedule: Q01DX009 (ip), higher T/C = longer survival
How it was run: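 Transplantable tumor in mice; compound treated vs vehicle controls; read-out survival; value = treated/control (T/C).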

[1] = dose: 100.0 mg/kg/injection, vehicle: distilled water + Tween-80
[2] = dose: 32.0 mg/kg/injection, vehicle: Klucel (hydroxypropylcellulose) (HPC)
[3] = dose: 200.0 mg/kg/injection, vehicle: saline with Tween-80
[4] = dose: 400.0 mg/kg/injection, vehicle: saline with Tween-80
[5] = dose: 20.0 mg/kg/injection, vehicle: saline
[6] = dose: 50.0 mg/kg/injection, vehicle: saline with Tween-80
[7] = dose: 400.0 mg/kg/injection, vehicle: suspension in saline
[8] = dose: 6.25 mg/kg/injection, vehicle: saline with Tween-80
[9] = dose: 12.5 mg/kg/injection, vehicle: saline with Tween-80
[10] = dose: 25.0 mg/kg/injection, vehicle: saline with Tween-80
[11] = dose: 100.0 mg/kg/injection, vehicle: saline with Tween-80
[12] = dose: 50.0 mg/kg/injection, vehicle: water
[13] = dose: 400.0 mg/kg/injection, vehicle: Klucel (hydroxypropylcellulose) (HPC)

Structure (SMILES): CNC(=O)OCc1c(COC(=O)NC)c(-c2ccc(Cl)c(Cl)c2)n2c1Cc1ccccc1C2
- survivor count [1]: 9 of 10 and 10 of 10
- survivor count (dose: 200.0 mg/kg/injection, vehicle: distilled water + Tween-80): 10 of 10
- survivor count (dose: 400.0 mg/kg/injection, vehicle: distilled water + Tween-80): 9 of 10

Structure (SMILES): CCCC(=O)OCc1cc(=O)n(C)c2c3c4c(cc12)c(C)cc(=O)n4CO3
- T/C (dose: 25.0 mg/kg/injection, vehicle: Klucel (hydroxypropylcellulose) (HPC)): 127 % of control
- survivor count (dose: 100.0 mg/kg/injection, vehicle: Klucel (hydroxypropylcellulose) (HPC)): 9 of 10

Structure (SMILES): CCCCCCCCCCCCCCCCCCOCC(COP(=O)([O-])OCC[N+](C)(C)C)OC (configuration not stated)
- survivor count (dose: 50.0 mg/kg/injection, vehicle: suspension in saline): 10 of 10
- survivor count (dose: 100.0 mg/kg/injection, vehicle: suspension in saline): 0 of 10

Structure (SMILES): O=NN(CCCl)C(=O)NC1CCCCC1
- T/C (dose: 1.0 mg/kg/injection, vehicle: Klucel (hydroxypropylcellulose) (HPC)): 125 % of control
- T/C (dose: 2.0 mg/kg/injection, vehicle: Klucel (hydroxypropylcellulose) (HPC)): 128 % of control
- T/C (dose: 8.0 mg/kg/injection, vehicle: Klucel (hydroxypropylcellulose) (HPC)): 146 % of control
- T/C (dose: 16.0 mg/kg/injection, vehicle: Klucel (hydroxypropylcellulose) (HPC)): 141 % of control
- T/C [2]: 129 and 141 % of control [9 of 10 alive]
- survivor count [2]: 6 of 10

Structure (SMILES): c1cc(OCC2CO2)ccc1OCC1CO1 (configuration not stated)
- survivor count [3]: 4 of 10
- survivor count [4]: 3 of 10

Structure (SMILES): C#CCNC1=C(C)C(=O)C2=C(C1=O)[C@H](COC(N)=O)[C@]1(OC)[C@@H]3N[C@@H]3CN21
- survivor count (dose: 12.5 mg/kg/injection, vehicle: distilled water + Tween-80): 10 of 10
- survivor count (dose: 25.0 mg/kg/injection, vehicle: distilled water + Tween-80): 10 of 10
- survivor count (dose: 50.0 mg/kg/injection, vehicle: distilled water + Tween-80): 3 of 10
- survivor count [1]: 0 of 10

Structure (SMILES): O=c1[nH]cc(F)c(=O)[nH]1
- T/C [5]: 128 % of control
- survivor count (dose: 40.0 mg/kg/injection, vehicle: saline): 9 of 10 and 10 of 10
- survivor count (dose: 80.0 mg/kg/injection, vehicle: saline): 10 of 10

Structure (SMILES): C[C@@H]1C[C@@H]([C@H](O)CC2CC(=O)NC(=O)C2)C(=O)[C@@H](C)C1
- survivor count (dose: 50.0 mg/kg/injection, vehicle: saline): 6 of 10
- survivor count (dose: 100.0 mg/kg/injection, vehicle: saline): 5 of 10
- survivor count (dose: 200.0 mg/kg/injection, vehicle: saline): 0 of 10

Structure (SMILES): O=[n+]1c2ccccc2n([O-])c2ccccc21.[Cl][Ni][Cl]
- survivor count [6]: 7 of 10

Structure (SMILES): C=C(C(=O)O)C(N)C(=O)O (configuration not stated)
- survivor count (dose: 400.0 mg/kg/injection, vehicle: saline): 5 of 10

Structure (SMILES): NC(=S)c1ncn(C2OC(CO)C(O)C2O)c1N (configuration not stated)
- T/C [7]: 127 % of control

Structure (SMILES): Cc1cc2c(C(C)C)c(O)c(O)c(C=O)c2c(O)c1-c1c(C)cc2c(C(C)C)c(O)c(O)c(C=O)c2c1O
- survivor count (dose: 6.0 mg/kg/injection, vehicle: saline with Tween-80): 10 of 10
- survivor count [8]: 10 of 10
- survivor count [9]: 6 of 10
- survivor count [10]: 1 of 10
- survivor count [6]: 0 of 10
- survivor count [11]: 0 of 10

Structure (SMILES): NC(=O)/C=C/c1c[nH]c2nccnc12
- survivor count [12]: 1 of 10

Structure (SMILES): CCCCCCCCCCCCSC1=C(Cl)C(=O)C(OC)=C(OC)C1=O
- survivor count [11]: 10 of 10

Structure (SMILES): C=C1N(C)c2ccccc2C1(C)C
- survivor count [9]: 10 of 10
- survivor count [10]: 6 of 10
- survivor count [6]: 8 of 10
- survivor count [11]: 5 of 10 and 8 of 10
- survivor count [3]: 0 of 10
- survivor count [4]: 0 of 10

Structure (SMILES): [Cl][Pt][Cl].[NH-]C(CO)C(=O)O (configuration not stated)
- survivor count (dose: 100.0 mg/kg/injection, vehicle: water): 4 of 10

Structure (SMILES): CCCCC(=O)OCC(=O)[C@]1(O)Cc2c(O)c3c(c(O)c2[C@@H](OC2CC(NC(=O)C(F)(F)F)C(O)C(C)O2)C1)C(=O)c1c(OC)cccc1C3=O (some centres not stated)
- T/C (dose: 64.0 mg/kg/injection, vehicle: saline with Tween-80): 137 % of control
- survivor count (dose: 128.0 mg/kg/injection, vehicle: saline with Tween-80): 10 of 10
- T/C (dose: 256.0 mg/kg/injection, vehicle: Klucel (hydroxypropylcellulose) (HPC)): 136 % of control
- survivor count (dose: 256.0 mg/kg/injection, vehicle: saline with Tween-80): 10 of 10

Structure (SMILES): COc1ccc(-c2csc(=[N+]3CCCCC3)s2)cc1
- survivor count [12]: 0 of 10

Structure (SMILES): CN(CCN(C)C(=O)CCOS(C)(=O)=O)C(=O)CCOS(C)(=O)=O
- survivor count (dose: 200.0 mg/kg/injection, vehicle: suspension in saline): 10 of 10
- survivor count [7]: 9 of 10

Structure (SMILES): CCCCCCCCCCCCN1C(C)=CS/C1=C\C=C\c1scc(C)[n+]1CCCCCCCCCCCC
- survivor count (dose: 0.78 mg/kg/injection, vehicle: saline with Tween-80): 9 of 10
- survivor count (dose: 3.12 mg/kg/injection, vehicle: saline with Tween-80): 10 of 10
- survivor count [8]: 10 of 10
- survivor count (dose: 12.0 mg/kg/injection, vehicle: saline with Tween-80): 0 of 10
- survivor count [10]: 0 of 10

Structure (SMILES): CO[C@@]12[C@@H]3N[C@@H]3CN1C1=C(C(=O)C(NCC3CCCO3)=C(C)C1=O)[C@@H]2COC(N)=O (some centres not stated)
- survivor count (dose: 12.0 mg/kg/injection, vehicle: distilled water + Tween-80): 9 of 10
- survivor count (dose: 24.0 mg/kg/injection, vehicle: distilled water + Tween-80): 10 of 10

Structure (SMILES): C[C@]12C=CC(=O)C=C1CC[C@@H]1[C@@H]2C(=O)C[C@@]2(C)[C@H]1CC[C@]2(O)C(=O)CO
- survivor count (dose: 400.0 mg/kg/injection, vehicle: water): 10 of 10

Structure (SMILES): Cc1[nH]ccc(=O)c1O
- survivor count (dose: 512.0 mg/kg/injection, vehicle: saline with Tween-80): 8 of 10

Structure (SMILES): CCCCNC(C)C1(O)Cc2c(O)c3c(c(O)c2C(OC2CC(N)C(O)C(C)O2)C1)C(=O)c1c(OC)cccc1C3=O (configuration not stated)
- survivor count (dose: 160.0 mg/kg/injection, vehicle: water): 10 of 10

Structure (SMILES): COC(=O)Nc1nc2ccc(SC)cc2c(=O)[nH]1
- survivor count [13]: 6 of 10

Structure (SMILES): Cc1cc(NC(=S)SCc2ccc3c(c2)OCO3)ccc1Cl
- survivor count (dose: 200.0 mg/kg/injection, vehicle: Klucel (hydroxypropylcellulose) (HPC)): 4 of 10
- survivor count [13]: 0 of 10

Structure (SMILES): Clc1ccc(C2SC=Cc3ccccc32)cc1 (configuration not stated)
- survivor count (dose: 800.0 mg/kg/injection, vehicle: Klucel (hydroxypropylcellulose) (HPC)): 1 of 10

Structure (SMILES): NC(=O)c1ccc(N)nc1
- T/C (dose: 2.0 mg/kg/injection, vehicle: saline): 145 % of control
- survivor count (dose: 4.0 mg/kg/injection, vehicle: saline): 10 of 10

Structure (SMILES): O=NN(CCCl)C(=O)NC1[C@H](O)CCC[C@@H]1O (some centres not stated)
- survivor count [5]: 10 of 10 on day 9
